Laboratory results: PMC13436964
These are yes or no findings as the source states them, for the method shown. Binding seen in cells or lysates may run through a third protein. These calls come from enrichment with a bait or labelling near it, and not all partners need be listed. Tags and fused reporters may be left off the sequences shown.

Amino acid sequences for entries named in this document (tags omitted).
UniProt Q9Y265: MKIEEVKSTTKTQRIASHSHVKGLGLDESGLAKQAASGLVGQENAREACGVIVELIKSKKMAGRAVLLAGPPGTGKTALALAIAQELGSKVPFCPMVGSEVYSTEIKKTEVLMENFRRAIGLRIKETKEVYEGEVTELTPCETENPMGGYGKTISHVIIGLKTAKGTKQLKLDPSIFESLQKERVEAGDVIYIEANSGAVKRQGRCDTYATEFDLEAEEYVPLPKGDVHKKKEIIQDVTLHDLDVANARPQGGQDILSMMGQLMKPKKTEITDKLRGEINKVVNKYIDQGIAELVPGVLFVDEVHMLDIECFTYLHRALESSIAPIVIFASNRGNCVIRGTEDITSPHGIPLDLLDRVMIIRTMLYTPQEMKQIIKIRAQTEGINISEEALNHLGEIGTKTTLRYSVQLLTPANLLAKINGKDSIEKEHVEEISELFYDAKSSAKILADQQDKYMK

T1: LMOD1-BirA*-FLAG (not stated (gene written Lmod1 as for mouse; key resources table lists the construct under 'Homo sapiens')) (UniProt Q8BVA4)
T1 sequence: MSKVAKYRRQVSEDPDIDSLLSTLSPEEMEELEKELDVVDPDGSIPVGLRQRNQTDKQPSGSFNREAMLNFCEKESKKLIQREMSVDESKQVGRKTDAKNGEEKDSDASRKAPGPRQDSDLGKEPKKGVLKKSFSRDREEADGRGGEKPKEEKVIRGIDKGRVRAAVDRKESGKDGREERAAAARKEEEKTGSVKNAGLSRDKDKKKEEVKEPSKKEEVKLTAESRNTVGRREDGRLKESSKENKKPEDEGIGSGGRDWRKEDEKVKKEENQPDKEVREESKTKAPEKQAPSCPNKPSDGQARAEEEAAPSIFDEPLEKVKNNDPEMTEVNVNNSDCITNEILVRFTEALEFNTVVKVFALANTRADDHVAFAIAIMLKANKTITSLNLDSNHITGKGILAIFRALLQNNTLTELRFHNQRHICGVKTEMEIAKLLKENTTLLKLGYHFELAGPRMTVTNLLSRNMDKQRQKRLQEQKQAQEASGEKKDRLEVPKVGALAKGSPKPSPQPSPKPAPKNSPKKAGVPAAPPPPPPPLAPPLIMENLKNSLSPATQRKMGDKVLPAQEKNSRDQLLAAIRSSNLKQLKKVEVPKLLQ


Target: T1, LMOD1-BirA*-FLAG (not stated (gene written Lmod1 as for mouse; key resources table lists the construct under 'Homo sapiens'))
Assay: proximity labelling; BioID in stable HEK293T Flp-In T-REx cells; BirA* fusion induced with 1 ug/mL tetracycline for 4 days, 50 uM biotin for 24 hr; streptavidin enrichment and DIA mass spectrometry; compared with BirA*-Ctrl and LMOD1-BirA* vs LMOD2-BirA*; n=4

Row | binding | Molecule
1 | binds | RuvB Like AAA ATPase 1 (RUVBL1), endogenous in HEK293T (from UniProt Q9Y265 1-456)
2 | binds | sirtuin 2 (SIRT2), endogenous in HEK293T (protein, UniProt Q8IXJ6 1-389) MAEPDPSHPLETQAGKVQEAQDSDSDSEGGAAGGEADMDFLRNLFSQTLSLGSQKERLLDELTLEGVARYMQSERCRRVICLVGAGISTSAGIPDFRSPSTGLYDNLEKYHLPYPEAIFEISYFKKHPEPFFALAKELYPGQFKPTICHYFMRLLKDKGLLLRCYTQNIDTLERIAGLEQEDLVEAHGTFYTSHCVSASCRHEYPLSWMKEKIFSEVTPKCEDCQSLVKPDIVFFGESLPARFFSCMQSDFLKVDLLLVMGTSLQVQPFASLISKAPLSTPRLLINKEKAGQSDPFLGMIMGLGGGMDFDSKKAYRDVAWLGECDQGCLALAELLGWKKELEDLVRREHASIDAQSGAGVPNPSTSASPKKSPPPAKDEARTTEREKPQ
